Assay results as given in article PMC5777823 (eLife, 2017).
Results are given in words; binding and its absence hold for the method and conditions named. Some binding calls cover weakened binding; strength is not graded here.

Protein sequences, listed by entry. Tags and fused reporters are not part of them. Lines headed by an entry give the natural chain unless they say otherwise; changes in a name come on top. Chains listed by the source or under a name are the forms on record and can include a tag or linker. Residues count along the entry.
CENP-C^2-545 (Q03188, residues 2-545): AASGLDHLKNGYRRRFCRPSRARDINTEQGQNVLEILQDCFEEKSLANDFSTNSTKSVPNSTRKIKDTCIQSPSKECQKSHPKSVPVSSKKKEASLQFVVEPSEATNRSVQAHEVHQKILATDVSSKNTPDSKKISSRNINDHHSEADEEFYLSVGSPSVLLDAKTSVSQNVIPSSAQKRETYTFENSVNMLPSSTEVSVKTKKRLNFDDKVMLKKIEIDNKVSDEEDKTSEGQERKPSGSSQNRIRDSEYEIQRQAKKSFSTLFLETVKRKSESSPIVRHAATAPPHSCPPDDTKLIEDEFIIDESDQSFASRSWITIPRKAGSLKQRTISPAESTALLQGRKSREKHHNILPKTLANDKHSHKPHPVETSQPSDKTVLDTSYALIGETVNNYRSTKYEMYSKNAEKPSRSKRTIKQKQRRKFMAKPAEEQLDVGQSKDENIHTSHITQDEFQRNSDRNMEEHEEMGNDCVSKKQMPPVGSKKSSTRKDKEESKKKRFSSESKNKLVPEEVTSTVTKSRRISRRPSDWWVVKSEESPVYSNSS
CENP-C^2-545-5A (Q03188, form named): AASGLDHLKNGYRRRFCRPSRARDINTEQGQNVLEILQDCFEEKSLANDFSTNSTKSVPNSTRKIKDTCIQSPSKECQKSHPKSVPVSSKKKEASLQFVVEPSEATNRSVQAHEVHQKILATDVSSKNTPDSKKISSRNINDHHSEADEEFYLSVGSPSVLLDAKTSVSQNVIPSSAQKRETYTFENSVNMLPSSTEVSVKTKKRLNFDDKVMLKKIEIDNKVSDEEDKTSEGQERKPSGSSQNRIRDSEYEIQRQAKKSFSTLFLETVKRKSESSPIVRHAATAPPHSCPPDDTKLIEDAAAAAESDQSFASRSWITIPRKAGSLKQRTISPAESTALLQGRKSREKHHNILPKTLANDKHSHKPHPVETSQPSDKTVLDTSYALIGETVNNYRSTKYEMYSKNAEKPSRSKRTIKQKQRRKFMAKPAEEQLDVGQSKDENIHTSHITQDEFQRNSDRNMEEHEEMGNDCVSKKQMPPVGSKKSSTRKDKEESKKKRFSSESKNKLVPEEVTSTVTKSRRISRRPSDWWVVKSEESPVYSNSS
UniProt Q8N0S6: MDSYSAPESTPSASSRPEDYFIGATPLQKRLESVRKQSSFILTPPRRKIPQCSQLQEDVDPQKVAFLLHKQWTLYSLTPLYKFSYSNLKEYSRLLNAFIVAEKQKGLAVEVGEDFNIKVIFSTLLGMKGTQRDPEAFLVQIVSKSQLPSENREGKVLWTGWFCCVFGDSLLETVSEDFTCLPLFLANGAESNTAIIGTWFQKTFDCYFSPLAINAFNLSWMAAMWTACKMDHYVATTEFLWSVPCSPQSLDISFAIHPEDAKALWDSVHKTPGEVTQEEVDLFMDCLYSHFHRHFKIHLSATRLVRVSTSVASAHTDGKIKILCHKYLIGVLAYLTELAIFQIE
UniProt Q9H3R5: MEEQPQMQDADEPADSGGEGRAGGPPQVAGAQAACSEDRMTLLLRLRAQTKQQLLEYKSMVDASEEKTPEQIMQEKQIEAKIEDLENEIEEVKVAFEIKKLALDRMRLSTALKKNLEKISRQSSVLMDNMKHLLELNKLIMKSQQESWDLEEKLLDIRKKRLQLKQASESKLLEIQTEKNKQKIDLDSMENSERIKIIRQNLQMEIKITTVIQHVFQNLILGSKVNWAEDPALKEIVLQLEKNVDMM
UniProt Q96H22, residues 230-339: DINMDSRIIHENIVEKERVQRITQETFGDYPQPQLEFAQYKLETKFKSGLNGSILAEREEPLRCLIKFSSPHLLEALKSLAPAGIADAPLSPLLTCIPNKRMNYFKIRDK

What was measured:
CENP-C^2-545 (human) = CENP-C^2-545 (human) (UniProt Q03188); test: SEC; analytical SEC on Superdex 200 5/150 or Superose 6 5/150; 20 mM HEPES pH 7.5, 300 mM NaCl, 2.5% glycerol, 2 mM TCEP, 4°C; proteins mixed at 6 μM, one hour on ice; fractions by SDS-PAGE and Coomassie; both purified
GST-CENP-L (human) = GST-CENP-L (human) (UniProt Q8N0S6); test: co-expression and co-purification; GST-CENP-L co-expressed with CENP-N or CENP-N^230-C in Tnao38 insect cells, isolated on GSH-Sepharose and Superdex 200 in 300 mM NaCl
CENP-HIKM complex = CENP-HIKM complex (UniProt Q9H3R5); test: SEC; analytical SEC on Superdex 200 5/150 or Superose 6 5/150; 20 mM HEPES pH 7.5, 300 mM NaCl, 2.5% glycerol, 2 mM TCEP, 4°C; proteins mixed at 6 μM, one hour on ice; fractions by SDS-PAGE and Coomassie; both purified

CENP-L (from UniProt Q8N0S6 1-344)
binding (CENP-C^2-545 (human)): no binding (tested: 6 μM)

CENP-N^230-C (from UniProt Q96H22 230-339) (domain or fragment)
binding (GST-CENP-L (human)): binds

CENP-C^2-545-5A (from UniProt Q03188 2-545) (domain or fragment)
binding (CENP-HIKM complex): binds
